The target in assay [1] is T1, Kallikrein-related peptidase 8 (human) (UniProt O60259).
T1 sequence: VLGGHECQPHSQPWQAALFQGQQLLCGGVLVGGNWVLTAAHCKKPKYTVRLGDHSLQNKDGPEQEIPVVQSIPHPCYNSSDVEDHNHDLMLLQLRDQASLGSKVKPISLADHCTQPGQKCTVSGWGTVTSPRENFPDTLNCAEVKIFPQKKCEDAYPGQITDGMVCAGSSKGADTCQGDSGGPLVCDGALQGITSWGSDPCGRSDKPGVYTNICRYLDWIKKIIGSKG
In words: co-IP.

In assay [2] the target is T2, syndecan-4 (human (endogenous in human GECs)) (UniProt P31431).
T2 sequence: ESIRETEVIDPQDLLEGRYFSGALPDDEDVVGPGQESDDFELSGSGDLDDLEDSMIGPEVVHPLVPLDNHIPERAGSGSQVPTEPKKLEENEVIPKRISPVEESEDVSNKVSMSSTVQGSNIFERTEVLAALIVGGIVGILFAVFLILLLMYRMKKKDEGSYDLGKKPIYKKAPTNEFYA
In words: co-IP.

No constants are given. Whether binding was seen depends on the method and setting. In cells and extracts the contact can be indirect. Some binding calls cover weakened binding; strength is not graded here.

B1: syndecan-4 (protein, UniProt P31431 19-198)
chain: T2 sequence
Turning to B1, the binding result in assay [1] is “binds”.

B2: Kallikrein-related peptidase 8 (enzyme, UniProt O60259 33-260)
chain: T1 sequence
For the molecule B2, the binding result in assay [2] is recorded as “binds”.

The record behind these values is article doi:10.1101/2025.07.01.662673.
